Reference: patent publication US20100278838A1, “EPHA2 MONOCLONAL ANTIBODIES AND METHODS OF USE THEREOF” (MEDIMMUNE, LLC, priority 2002, published 2010)
Entries after “also recorded” stand apart in the source; their conditions may differ.

B1: EA2: EphA2 agonistic monoclonal antibody; ATCC deposit no. PTA-4380; co-pending application Ser. No. 10/436,783; VL SEQ ID NO:33, VH SEQ ID NO:37 (antibody, listed as Homo Sapiens, V domains shown)
VH: DVKLVESGGGLVKPGGSLKLSCAASGFTFSSYTMSWVRQTPEKRLEWVATISSGGTYTYYPDSVKGRFTISRDNAKNTLYLQMSSLKSEDTAMYYCTREAIFTYWGQGTLVTVSA
VL: DIKMTQSPSSMYASLGERVTITCKASQDINNYLSWFQQKPGKSPKTLIYRANRLVDGVPSRFSGSGSGQDYSLTISSLEYEDMGIYYCLKYDEFPYTFGGGTKLEIK
B2: Eph099B-233.152: EphA2 monoclonal antibody; hybridoma ATCC PTA-5194; VL SEQ ID NO:17, VH SEQ ID NO:21 (antibody, listed as Homo sapiens, V domains shown)
VH: EVKLVESGGGLVQPGGSLSLSCAASGFTFTDYSMNWVRQPPGKALEWLGFIRNKANDYTTEYSASVKGRFTISRDNSQSILYLQMNALRAEDSATYYCVRYPRYHAMDSWGQGTSVTVSS
VL: DIVLTQSPATLSVTPGDSVNLSCRASQSISNNLHWYQQKSHESPRLLIKYVFQSISGIPSRFSGSGSGTDFTLSINSVETEDFGMYFCQQSNSWPLTFGAGTKLELK

System: EphA2 on transformed MDA-MB-231 cells
Assay: Immunofluorescence binding to transformed cells
Format: cell-based
Conditions: 10 μg/ml, 4° C., 30 min; MDA-MB-231 versus MCF-10A

Molecule	Binding to EphA2 on transformed versus non-transformed cells
B1	preferentially binds EphA2 on transformed cells; also recorded: preferentially binds cancer cells
B2	binds EphA2 expressed on both transformed and non-transformed cells
